Reference: publication PMC10441460, “Identification of Selective ATP-Competitive CMG Helicase Inhibitors for Cancer Intervention that Disrupt CMG-Replisome Function” (Research Square, 2023)
No constants are given. Whether binding was seen depends on the method and setting. For some of these results: In cells and extracts the contact can be indirect. Some binding calls cover weakened binding; strength is not graded here. For some of these results: Where a sequence is shown, tags or fusion partners need not be part of it.

The chains behind the UniProt entries cited, without tags or fusion partners.
UniProt Q9BRT9: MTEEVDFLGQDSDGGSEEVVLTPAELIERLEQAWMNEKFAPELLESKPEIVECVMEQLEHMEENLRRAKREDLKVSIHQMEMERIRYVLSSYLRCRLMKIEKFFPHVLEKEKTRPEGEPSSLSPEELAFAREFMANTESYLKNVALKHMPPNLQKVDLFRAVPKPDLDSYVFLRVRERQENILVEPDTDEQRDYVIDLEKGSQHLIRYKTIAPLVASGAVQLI
UniProt P49736: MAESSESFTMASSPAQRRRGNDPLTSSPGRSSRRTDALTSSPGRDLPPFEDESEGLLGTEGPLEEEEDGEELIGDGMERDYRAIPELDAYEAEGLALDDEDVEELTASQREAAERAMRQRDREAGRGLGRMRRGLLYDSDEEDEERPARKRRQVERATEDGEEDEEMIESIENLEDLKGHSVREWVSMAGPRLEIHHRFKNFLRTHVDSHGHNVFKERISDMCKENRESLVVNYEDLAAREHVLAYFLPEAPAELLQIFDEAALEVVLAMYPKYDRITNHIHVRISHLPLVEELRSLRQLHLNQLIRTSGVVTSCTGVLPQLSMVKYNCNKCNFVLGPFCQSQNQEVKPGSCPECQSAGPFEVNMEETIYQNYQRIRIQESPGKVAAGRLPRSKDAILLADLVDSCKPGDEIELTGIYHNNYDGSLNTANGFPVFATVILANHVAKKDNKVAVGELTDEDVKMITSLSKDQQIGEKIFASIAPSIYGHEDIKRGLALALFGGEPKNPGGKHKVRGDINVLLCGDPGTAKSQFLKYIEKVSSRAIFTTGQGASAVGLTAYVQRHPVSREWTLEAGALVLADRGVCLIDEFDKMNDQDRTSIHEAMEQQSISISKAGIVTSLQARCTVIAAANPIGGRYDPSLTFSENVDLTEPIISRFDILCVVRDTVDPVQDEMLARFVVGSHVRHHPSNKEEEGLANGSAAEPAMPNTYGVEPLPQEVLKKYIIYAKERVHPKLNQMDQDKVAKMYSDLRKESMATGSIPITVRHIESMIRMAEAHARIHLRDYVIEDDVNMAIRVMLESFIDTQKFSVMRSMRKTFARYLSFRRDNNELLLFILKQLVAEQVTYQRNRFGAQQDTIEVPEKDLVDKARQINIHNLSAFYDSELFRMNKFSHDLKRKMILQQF

What was measured:
[1] = molecular target: T1, human 6His2Flag-Cdc45 (human) (UniProt O75419); test: co-purification of co-expressed subunits (glutathione beads, Q-Sepharose, anti-Flag beads, glycerol gradient); 11 human CMG subunits co-expressed in High Five cells; captured by GST-Sld5 on glutathione beads (0.42 M potassium acetate), Q-Sepharose, then by 6His2Flag-Cdc45 on anti-Flag M2 beads, PreScission cleavage, 15-40% glycerol gradient; subunits checked by silver staining and immunoblotting
T1 sequence: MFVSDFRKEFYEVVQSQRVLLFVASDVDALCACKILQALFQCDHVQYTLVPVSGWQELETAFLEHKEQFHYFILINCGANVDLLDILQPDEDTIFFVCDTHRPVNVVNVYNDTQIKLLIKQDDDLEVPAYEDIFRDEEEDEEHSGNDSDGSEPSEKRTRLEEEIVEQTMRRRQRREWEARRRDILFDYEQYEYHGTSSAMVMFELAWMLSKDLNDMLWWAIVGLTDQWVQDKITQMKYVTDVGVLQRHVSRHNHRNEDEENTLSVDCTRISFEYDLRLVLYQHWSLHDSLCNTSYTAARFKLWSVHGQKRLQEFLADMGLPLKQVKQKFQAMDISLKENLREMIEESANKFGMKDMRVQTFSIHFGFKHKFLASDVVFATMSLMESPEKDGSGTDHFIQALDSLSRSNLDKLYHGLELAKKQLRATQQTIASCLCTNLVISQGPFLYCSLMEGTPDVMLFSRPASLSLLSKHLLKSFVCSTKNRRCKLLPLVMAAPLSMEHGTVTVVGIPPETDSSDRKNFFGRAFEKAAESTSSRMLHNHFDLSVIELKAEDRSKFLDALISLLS

human GST-Sld5 (human) = human GST-Sld5 (human) (UniProt Q9BRT9); test: as above
[2] = molecular target: T2, Psf1 (endogenous) (human (endogenous in HaCaT and HEK-293T)) (UniProt Q14691); test: condition: only with 15 µM CA1 on the immunoprecipitated complexes for 30 min; co-IP; as a2, but the beads with the immunoprecipitated complexes were incubated with 15 µM coumermycin-A1 (CA1) for 30 min, washed, immunoblotted
T2 sequence: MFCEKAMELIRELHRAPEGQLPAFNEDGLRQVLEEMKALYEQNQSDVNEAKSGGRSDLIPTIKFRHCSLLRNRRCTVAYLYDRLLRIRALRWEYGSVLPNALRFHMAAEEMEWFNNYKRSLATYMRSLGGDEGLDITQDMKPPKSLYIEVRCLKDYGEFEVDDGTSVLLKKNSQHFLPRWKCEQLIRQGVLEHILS

[3] = molecular target: T2, Psf1 (endogenous) (human (endogenous in HaCaT and HEK-293T)); test: co-IP; nuclear extract of synchronized HaCaT cells (20 hrs after release, S-phase), 200 mM potassium acetate, 0.01% Triton X-100, 4°C; IP with anti-Psf1 or anti-Mcm2 (IgG control), protein A/G agarose; beads incubated with DMSO for 30 min, washed, immunoblotted

| binding [1] | binding (human GST-Sld5 (human)) | binding [2] | binding [3] | Substance |
| --- | --- | --- | --- | --- |
| binds | binds | – | – | human Mcm2 (recombinant hCMG subunit) (from UniProt P49736 1-904) |
| – | – | no binding | binds | Mcm2 (endogenous) (from UniProt P49736 1-904) |
